Consider 40 compounds from PubChem BioAssay AID493014 (National Center for Advancing Translational Sciences (NCATS), 2011).

This test in a line: qHTS Assay to Find Inhibitors of Chronic Active B-Cell Receptor Signaling. The conditions noted are these: ABC-DLBCL IkBa-CBG/CBR reporter, luminescence ratio (green luciferase fused to IkBa over red control in TMD8 lymphoma cells), 4 h. Put shortly:
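Doxycycline induced both beetle luciferases in TMD8 lymphoma cells; IKK-driven degradation limits the IkappaBalpha-fused green signal, while red luminescence normalises for cell number and nonspecific effects. Compounds tested up to 46 uM, 4 hrs.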
(In general: Quantitative high-throughput screening tests each substance at several concentrations.)

Setting [1] is: measured here: CBR red luminescence, cell number.
Where [2] appears, read: measured here: IkBa-CBG green luminescence.

The structures appear in SMILES notation. The list shows a part of the results. Shown are side measurements of this screen, not its main read-out; they come without a call. Most of these compounds were active or inconclusive in the main read-out, so they are no random draw. The note in brackets gives the kind of curve behind each potency; many fits are weak.

By AC50 is commonly meant the concentration at which the activity in the assay is half-maximal. As to `COC(=O)c1cc(C)sc1NC(=O)CCc1ccccc1`, under setting [1], the AC50 is 1 µM [rising, full curve, poor fit].

For `Cc1c(C(=O)NC2CCOC2)oc2c(F)cccc12` (stereo not drawn), under setting [1], the AC50 is 7.94 µM [rising, partial curve].

`COc1cccc(NC(=S)/C(=C(\[O-])c2ccc(C)c([N+](=O)[O-])c2)[n+]2ccccc2)c1`: the AC50 under setting [1] is 1.16 µM [falling, full curve, poor fit].

Consider `Fc1ccccc1-c1csc(=Nc2cccnc2)n1CCCn1ccnc1`, for which the AC50 under setting [1] is 1.64 µM [falling, partial curve, poor fit].

In the case of `CCOC(=O)CC(=O)Nc1nnc(C(C)C)s1`, the AC50 under setting [1] is 22.4 µM [falling, single point].

Turning to `O=C(CCC(=O)c1ccc(F)cc1)Nc1cccnc1`, under setting [1], the AC50 is 6.51 µM [rising, single point].

Regarding `COc1cc(NC(=O)c2cc([N+](=O)[O-])ccc2NC(=O)CNC2CCCCC2)cc(OC)c1`, the AC50 under setting [1] was 11.2 µM [falling, partial curve].

In the case of `Clc1cccc(Cl)c1-c1nnc2ccc(N3CCOCC3)nn12`, the AC50 under setting [1] is 11.6 µM [falling, partial curve].

As to `COc1ccc(/C(C)=N/N2CCCCC2)c(O)c1`, the AC50 under setting [1] is 14.1 µM [rising, single point].

Regarding `CCOC(=O)c1c(C)c(C)n(Cc2ccc(OC)c(OC)c2)c1C`, the AC50 under setting [1] was 6.51 µM [rising, partial curve, poor fit].

For the compound `Cc1cc(C(=O)COC(=O)Cc2ccc(Cl)cc2)c(C)n1C`, the AC50 under setting [1] was 0.00461 µM [rising, full curve, poor fit].

On to `O=C1/C(=C\c2ccccn2)SC(=S)N1c1ccc(S(=O)(=O)Nc2nccs2)cc1`, for which the AC50 under setting [1] is 22.4 µM [falling, single point].

For `Cc1ccccc1N=C(NOCc1ccc(Cl)cc1Cl)c1nonc1N`, the AC50 under setting [1] is 18.4 µM [falling, single point].

As to `COCCCNC(=O)C1CCCN(S(C)(=O)=O)C1` (stereo not drawn), the AC50 under setting [1] is 0.116 µM [falling, full curve].

Take `COCCCNC(=S)N(CCCO)Cc1cc2cc3c(cc2[nH]c1=O)OCO3`: the AC50 under setting [1] was 7.94 µM [rising, partial curve, poor fit].

As for `CCc1cc2c(Sc3nc4ccccc4s3)ncnc2s1`, the AC50 under setting [1] was 3.98 µM [falling, single point].

As to `Cc1ccc(-n2c3c(c(O)c(-c4ccccc4)c2=O)C(=O)CC(C)(C)C3)cc1`, under setting [1], the AC50 is 23.1 µM [falling, partial curve, poor fit].

`CC1(C)C[C@@H]2C[C@@](C)(CN2C(=O)c2cc(COc3cccc(C(F)(F)F)c3)on2)C1`: the AC50 under setting [1] was 17.8 µM [falling, partial curve, poor fit].

Take `Cc1ccc(S(=O)(=O)N2CCN(C(=O)c3ccc4ccccc4n3)CC2)c(C)c1`: the AC50 under setting [1] is 1.46 µM [rising, full curve, poor fit].

With `COc1ccc(/C=N/NC(=S)Nc2cc(S(=O)(=O)N3CCOCC3)ccc2N2CCOCC2)cc1O`, the AC50 under setting [1] is 0.366 µM [rising, full curve].

Regarding `COc1ccc(OCC(=O)Nc2ccccc2C(=O)NC2CC2)cc1`, the AC50 under setting [1] was 4.11 µM [rising, full curve, poor fit].

`CCc1cc2c(=O)c(-c3ccc4c(c3)OCCO4)coc2c(CN2CCCCC2C)c1O` (stereo not drawn): the AC50 is 8.91 µM [falling, partial curve, poor fit] under setting [1] and 7.08 µM [rising, partial curve, poor fit] under setting [2].

As for `Cc1ccc(OCCC(=O)Nc2ccc3c(c2)OCCCO3)cc1`, the AC50 under setting [1] was 0.259 µM [rising, partial curve].

Take `CC(=O)Nc1ccc(C(=O)COC(=O)C2CCCCC2)c(F)c1`: under setting [1], the AC50 was 20.6 µM [rising, partial curve, poor fit].

Regarding `O=C(N/N=C/c1ccc([N+](=O)[O-])cc1)c1[nH]ncc1Br`, the AC50 under setting [1] is 1.41 µM [falling, full curve].

On to `CCN(CC)C(=O)C1CCCc2c1[nH]c1ccc(Cl)cc21` (stereo not drawn), for which the AC50 runs as follows: under setting [1], 7.31 µM [falling, full curve]; under setting [2], 5.17 µM [rising, full curve, poor fit].

For `N/C(=N\OC(=O)CSc1ccccc1)c1ccncc1`, the AC50 under setting [1] is 0.447 µM [rising, full curve, poor fit].

On to `Cc1ccnc(NC(=O)c2oc3ccccc3c2C)c1`, for which, under setting [1], the AC50 was 18.4 µM [falling, single point].

As for `CCN(CC)S(=O)(=O)c1ccc(C(=O)N2CCN(c3ncccn3)CC2)cc1`, the AC50 under setting [1] is 5.62 µM [rising, full curve, poor fit].

For the compound `O=C1CC(c2ccccc2)=Nc2ccc(Br)cc2N1`, the AC50 under setting [1] was 11.2 µM [rising, partial curve].

For `CC(C)c1[nH]nc2c1C(C(C)C)C(C#N)=C(N)O2` (stereo not drawn), under setting [1], the AC50 is 20 µM [falling, single point].

In the case of `CC1=NN(C(=O)c2ccc(C)cc2)C(O)(C(F)(F)OC(F)(F)F)C1` (stereo not drawn), the AC50 under setting [1] is 5.62 µM [falling, full curve].

Take `Cc1cccc(C)c1NC(=O)CN(C)CC(=O)Nc1sc2c(c1C(N)=O)CCC2`: the AC50 under setting [1] is 0.58 µM [rising, full curve, poor fit].

On to `COc1ccccc1NC(=O)c1c(C)oc2c1CCCC2`, for which the AC50 under setting [1] is 6.51 µM [rising, full curve].

On to `CC(=O)Nc1ccc(-c2csc(NNC(=O)c3ccccc3)n2)cc1`, for which the AC50 under setting [1] was 12.6 µM [rising, partial curve, poor fit].

Turning to `CNc1c(NS(=O)(=O)c2ccc(OC)c(Cl)c2)c(=O)oc2ccccc12`, the half-maximal activity concentration (AC50) under setting [1] is 17.8 µM [rising, single point] and the AC50 under setting [2] is 25.1 µM [falling, single point].

Turning to `C=C1CCC[C@]2(C)C[C@H]3OC(=O)C(CN(Cc4ccc(OC)c(OC)c4)CC(C)O)[C@H]3CC12` (stereo partly drawn), the AC50 under setting [1] was 10 µM [falling, partial curve, poor fit].

As for `CN(C(=O)CCc1nc2ccccc2s1)c1ccccc1`, the AC50 under setting [1] was 16.4 µM [rising, single point].

With `CC(C)(C)c1cc[n+](-c2[nH]c(=O)sc2/C=N/NC(=O)c2ccccc2[O-])cc1`, under setting [1], the AC50 was 22.4 µM [falling, single point].

Turning to `CCNC(=O)CC1S/C(=N/N=C(\C)c2ccccc2)NC1=O` (stereo not drawn), the AC50 under setting [1] is 35.5 µM [rising, single point].
